Patent publication US20040024033A1 (priority 1998, published 2004)

Tested on: A549 (Lung)
Experiment: Antiproliferative assay, A549
Assay type: cell-based
Details: Homo sapiens, 120 h, 5 d exposure, mean ± SD, read-out: IC50-values for growth inhibition
Method: Antiproliferative assays are performed as previously described (Int. J. Cancer 43, 851-6 (1989)). Briefly, cells are seeded at 1.5×10^3 cells/well into 96-well microtiter plates and incubated overnight. Compounds are added in serial dilutions on day 1. The plates are then incubated for an additional 2 to 5 days, allowing for at least one cell doubling (cell line dependent), after which the cells are fixed with 3.3% v/v glutaraldehyde, washed with water and stained with 0.05% w/v methylene blue. After washing, the dye is eluted with 3% V/V HCl and the optical density measured at 665 nm with a SpectraMax 340 (Bucherer, Basel, Switzerland). IC50 values are determined by a computerized system (SoftPro, Bucherer, Basel, Switzerland) using the formula (OD test−OD start)/(OD control−OD start)×100. IC50 is defined as the drug concentration which leads to 50% of cells per well compared to control cultures (100%) at the end of incubation period.

- IC50: 3.75 ± 0.92 nM
SMILES: CC(=O)O[C@H]1C(=O)[C@@]2(C)[C@H]([C@H](OC(=O)c3ccccc3)[C@]3(O)C[C@H](OC(=O)[C@H](O)[C@@H](NC(=O)c4ccccc4)c4ccccc4)C(C)=C1C3(C)C)[C@]1(OC(C)=O)CO[C@@H]1C[C@@H]2O [paclitaxel]
